Results on one substance are retold here after doi:10.1101/2023.06.30.547196.

By UniProt entry, the sequences of proteins in these tests, tags left out. Where a name states a change or a piece, a line headed by the entry shows the natural chain unless it says otherwise.
UniProt Q8NCF5: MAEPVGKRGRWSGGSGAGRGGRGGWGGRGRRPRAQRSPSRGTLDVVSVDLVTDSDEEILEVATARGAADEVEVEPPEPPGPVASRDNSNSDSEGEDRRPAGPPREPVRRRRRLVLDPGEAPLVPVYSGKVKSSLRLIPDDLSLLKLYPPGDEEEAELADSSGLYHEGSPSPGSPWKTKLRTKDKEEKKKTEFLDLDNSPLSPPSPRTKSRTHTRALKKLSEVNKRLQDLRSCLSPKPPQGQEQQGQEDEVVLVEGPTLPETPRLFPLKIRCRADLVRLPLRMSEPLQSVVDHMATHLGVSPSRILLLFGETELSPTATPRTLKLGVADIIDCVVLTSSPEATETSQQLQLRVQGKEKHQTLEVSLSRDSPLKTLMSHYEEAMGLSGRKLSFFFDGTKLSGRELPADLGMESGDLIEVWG
UniProt Q8IY18: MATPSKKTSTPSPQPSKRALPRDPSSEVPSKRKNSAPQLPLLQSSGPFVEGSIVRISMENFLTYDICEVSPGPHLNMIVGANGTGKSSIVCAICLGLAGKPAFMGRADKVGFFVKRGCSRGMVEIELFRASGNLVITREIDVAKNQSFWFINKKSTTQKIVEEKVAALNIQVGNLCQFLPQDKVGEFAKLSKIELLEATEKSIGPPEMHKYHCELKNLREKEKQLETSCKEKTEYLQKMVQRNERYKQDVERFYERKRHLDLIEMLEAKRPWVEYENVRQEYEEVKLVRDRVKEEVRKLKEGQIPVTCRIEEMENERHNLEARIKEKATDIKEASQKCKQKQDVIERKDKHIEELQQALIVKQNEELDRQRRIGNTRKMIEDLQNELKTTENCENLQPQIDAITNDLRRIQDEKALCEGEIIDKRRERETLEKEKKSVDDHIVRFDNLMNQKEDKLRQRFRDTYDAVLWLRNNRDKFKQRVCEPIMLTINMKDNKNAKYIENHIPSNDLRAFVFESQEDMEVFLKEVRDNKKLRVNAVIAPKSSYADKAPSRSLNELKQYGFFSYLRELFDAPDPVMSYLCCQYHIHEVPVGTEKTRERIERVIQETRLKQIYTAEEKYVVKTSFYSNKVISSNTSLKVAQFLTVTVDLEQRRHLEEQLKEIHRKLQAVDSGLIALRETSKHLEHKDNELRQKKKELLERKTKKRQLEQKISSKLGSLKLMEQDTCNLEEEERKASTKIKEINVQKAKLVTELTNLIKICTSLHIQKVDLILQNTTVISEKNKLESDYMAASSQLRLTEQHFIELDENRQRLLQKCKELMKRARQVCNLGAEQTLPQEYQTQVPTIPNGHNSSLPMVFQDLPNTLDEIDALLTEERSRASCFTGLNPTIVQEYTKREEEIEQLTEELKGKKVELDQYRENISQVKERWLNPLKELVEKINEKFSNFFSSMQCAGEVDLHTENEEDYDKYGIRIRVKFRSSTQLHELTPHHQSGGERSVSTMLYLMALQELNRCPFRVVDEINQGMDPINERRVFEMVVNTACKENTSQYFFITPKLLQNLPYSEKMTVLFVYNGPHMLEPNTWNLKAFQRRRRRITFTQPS

Results are given in words; binding and its absence hold for the method and conditions named. In cells and extracts the contact can be indirect. Binding can be weak; no strength is given.

In the experiment the target is Flag-tagged NFATC2IP ΔSLD2 (human) (UniProt Q8NCF5). The experiment is described as follows: co-IP.

With “endogenous SMC5 (from UniProt Q8IY18 1-1101)”, the binding result is reported as “binds”.
